The text below walks through data of patent US20250283871A1, “COMPOSITIONS AND METHODS FOR MODULATING THE INTERACTION BETWEEN SS18-SSX FUSION ONCOPROTEIN AND NUCLEOSOMES” (Dana-Farber Cancer Institute, Inc., priority 2020, published 2025).

The data set relates to BAF complex subunits and histone proteins. Put plainly: Mass spectrometry proteomics of purified HA-SS18 WT and HA-SS18-SSX1 complexes (Tables 5A-5E). Set-up: species or system human.
Setting [1] is: HA-SS18SSX1_NE_peptides: protein co-purified with HA-SS18-SSX1 BAF complexes from soluble nuclear extract (NE), HEK-293T cells.
The mark [2] stands for this setting: HA-SS18WT_NE_peptides: proteins co-purified with HA-SS18 WT from nuclear extract (NE), HEK-293T.
The mark [3] stands for this setting: HA-SS18WT_NE_peptides: HA-SS18 WT complexes purified from nuclear extract (NE), HEK-293T, label = protein identified (Gene Symbol).

B1: AGPAT5 (protein, UniProt Q9NUQ2 1-364, looked up)
1-acyl-sn-glycerol-3-phosphate …: MLLSLVLHTYSMRYLLPSVVLLGTAPTYVLAWGVWRLLSAFLPARFYQALDDRLYCVYQSMVLFFFENYTGVQILLYGDLPKNKENIIYLANHQSTVDWIVADILAIRQNALGHVRYVLKEGLKWLPLYGCYFAQHGGIYVKRSAKFNEKEMRNKLQSYVDAGTPMYLVIFPEGTRYNPEQTKVLSASQAFAAQRGLAVLKHVLTPRIKATHVAFDCMKNYLDAIYDVTVVYEGKDDGGQRRESPTMTEFLCKECPKIHIHIDRIDKKDVPEEQEHMRRWLHERFEIKDKMLIEFYESPDPERRKRFPGKSVNSKLSIKKTLPSMLILSGLTAGMLMTDAGRKLYVNTWIYGTLLGCLWVTIKA
On to B1, for which, under setting [1], the “Total (peptides)” value is 2 and the “Unique (peptides)” value is on record as 2. In addition, under setting [2], the “Total (peptides)” value turned out to be 2 and the “Unique (peptides)” value is 2.

B2: UQCRFS1 (protein, UniProt P47985 79-274, looked up)
Cytochrome b-c1 complex …: SHTDIKVPDFSEYRRLEVLDSTKSSRESSEARKGFSYLVTGVTTVGVAYAAKNAVTQFVSSMSASADVLALAKIEIKLSDIPEGKNMAFKWRGKPLFVRHRTQKEIEQEAAVELSQLRDPQHDLDRVKKPEWVILIGVCTHLGCVPIANAGDFGGYYCPCHGSHYDASGRIRLGPAPLNLEVPTYEFTSDDMVIVG
Regarding B2, the “Total (peptides)” value is, setting by setting: under setting [1], 2; under setting [3], 5. Also, the “Unique (peptides)” value reads like this: under setting [1], 2; under setting [3], 5.

B3: MTX3 (protein, UniProt Q5HYI7 1-312, looked up)
Metaxin-3: MAAPLELSCWGGGWGLPSVHSESLVVMAYAKFSGAPLKVNVIDNTWRGSRGDVPILTTEDDMVSQPAKILNFLRKQKYNADYELSAKQGADTLAYIALLEEKLLPAVLHTFWVESDNYFTVTKPWFASQIPFPLSLILPGRMSKGALNRILLTRGQPPLYHLREVEAQIYRDAKECLNLLSNRLGTSQFFFGDTPSTLDAYVFGFLAPLYKVRFPKVQLQEHLKQLSNLCRFCDDILSSYFRLSLGGISPAGQETVDANLQKLTQLVNKESNLIEKMDDNLRQSPQLPPRKLPTLKLTPAEEENNSFQRLSP
As for B3, under setting [1], the “Total (peptides)” value turned out to be 2 and the “Unique (peptides)” value is 2. In addition, under setting [2], the “Total (peptides)” value is on record as 1 and the “Unique (peptides)” value turned out to be 1.

B4: AGPS (protein, UniProt O00116 59-658, looked up)
Alkyldihydroxyacetonephosphate …: KARRAASAATAAPTATPAAQESGTIPKKRQEVMKWNGWGYNDSKFIFNKKGQIELTGKRYPLSGMGLPTFKEWIQNTLGVNVEHKTTSKASLNPSDTPPSVVNEDFLHDLKETNISYSQEADDRVFRAHGHCLHEIFLLREGMFERIPDIVLWPTCHDDVVKIVNLACKYNLCIIPIGGGTSVSYGLMCPADETRTIISLDTSQMNRILWVDENNLTAHVEAGITGQELERQLKESGYCTGHEPDSLEFSTVGGWVSTRASGMKKNIYGNIEDLVVHIKMVTPRGIIEKSCQGPRMSTGPDIHHFIMGSEGTLGVITEATIKIRPVPEYQKYGSVAFPNFEQGVACLREIAKQRCAPASIRLMDNKQFQFGHALKPQVSSIFTSFLDGLKKFYITKFKGFDPNQLSVATLLFEGDREKVLQHEKQVYDIAAKFGGLAAGEDNGQRGYLLTYVIAYIRDLALEYYVLGESFETSAPWDRVVDLCRNVKERITRECKEKGVQFAPFSTCRVTQTYDAGACIYFYFAFNYRGISDPLTVFEQTEAAAREEILANGGSLSHHHGVGKLRKQWLKESISDVGFGMLKSVKEYVDPNNIFGNRNLL
Turning to B4, under setting [1], the “Total (peptides)” value came out at 2 and the “Unique (peptides)” value was found to be 2.

B5: EARS2 (protein, UniProt Q5JPH6 42-523, looked up)
Nondiscriminating …: APSPTGFLHLGGLRTALYNYIFAKKYQGSFILRLEDTDQTRVVPGAAENIEDMLEWAGIPPDESPRRGGPAGPYQQSQRLELYAQATEALLKTGAAYPCFCSPQRLELLKKEALRNHQTPRYDNRCRNMSQEQVAQKLAKDPKPAIRFRLEQVVPAFQDLVYGWNRHEVASVEGDPVIMKSDGFPTYHLACVVDDHHMGISHVLRGSEWLVSTAKHLLLYQALGWQPPHFAHLPLLLNRDGSKLSKRQGDVFLEHFAADGFLPDSLLDIITNCGSGFAENQMGRTLPELITQFNLTQVTCHSALLDLEKLPEFNRLHLQRLVSNESQRRQLVGKLQVLVEEAFGCQLQNRDVLNPVYVERILLLRQGHICRLQDLVSPVYSYLWTRPAVGRAQLDAISEKVDVIAKRVLGLLERSSMSLTQDMLNGELKKLSEGLEGTKYSNVMKLLRMALSGQQQGPPVAEMMLALGPKEVRERIQKVVSS
Take B5: under setting [1], the “Total (peptides)” value is recorded as 2 and the “Unique (peptides)” value is 2. Under setting [2], the “Total (peptides)” value came to 1 and the “Unique (peptides)” value is given as 1.

B6: NUBPL (protein, UniProt Q8TB37 39-319, looked up)
Iron-sulfur cluster transfer …: GAGSETLKQRRTQIMSRGLPKQKPIEGVKQVIVVASGKGGVGKSTTAVNLALALAANDSSKAIGLLDVDVYGPSVPKMMNLKGNPELSQSNLMRPLLNYGIACMSMGFLVEESEPVVWRGLMVMSAIEKLLRQVDWGQLDYLVVDMPPGTGDVQLSVSQNIPITGAVIVSTPQDIALMDAHKGAEMFRRVHVPVLGLVQNMSVFQCPKCKHKTHIFGADGARKLAQTLGLEVLGDIPLHLNIREASDTGQPIVFSQPESDEAKAYLRIAVEVVRRLPSPSE
For B6, under setting [1], the “Total (peptides)” value is on record as 2 and the “Unique (peptides)” value turned out to be 2. For the same molecule, under setting [3], the “Total (peptides)” value is given as 2 and the “Unique (peptides)” value came to 2.

B7: MTFP1 (protein, UniProt Q9UDX5 1-166, looked up)
Mitochondrial fission process …: MSEPQPRGAERDLYRDTWVRYLGYANEVGEAFRSLVPAAVVWLSYGVASSYVLADAIDKGKKAGEVPSPEAGRSARVTVAVVDTFVWQALASVAIPGFTINRVCAASLYVLGTATRWPLAVRKWTTTALGLLTIPIIIHPIDRSVDFLLDSSLRKLYPTVGKPSSS
Take B7: under setting [1], the “Total (peptides)” value came out at 2 and the “Unique (peptides)” value turned out to be 2. Moreover, under setting [2], the “Total (peptides)” value is given as 2 and the “Unique (peptides)” value is given as 2.

B8: USP30 (protein, UniProt Q70CQ3 1-517, looked up)
Ubiquitin carboxyl-terminal …: MLSSRAEAAMTAADRAIQRFLRTGAAVRYKVMKNWGVIGGIAAALAAGIYVIWGPITERKKRRKGLVPGLVNLGNTCFMNSLLQGLSACPAFIRWLEEFTSQYSRDQKEPPSHQYLSLTLLHLLKALSCQEVTDDEVLDASCLLDVLRMYRWQISSFEEQDAHELFHVITSSLEDERDRQPRVTHLFDVHSLEQQSEITPKQITCRTRGSPHPTSNHWKSQHPFHGRLTSNMVCKHCEHQSPVRFDTFDSLSLSIPAATWGHPLTLDHCLHHFISSESVRDVVCDNCTKIEAKGTLNGEKVEHQRTTFVKQLKLGKLPQCLCIHLQRLSWSSHGTPLKRHEHVQFNEFLMMDIYKYHLLGHKPSQHNPKLNKNPGPTLELQDGPGAPTPVLNQPGAPKTQIFMNGACSPSLLPTLSAPMPFPLPVVPDYSSSTYLFRLMAVVVHHGDMHSGHFVTYRRSPPSARNPLSTSNQWLWVSDDTVRKASLQEVLSSSAYLLFYERVLSRMQHQSQECKSEE
Regarding B8, under setting [1], the “Total (peptides)” value was 2 and the “Unique (peptides)” value is recorded as 2.

B9: ATL3 (protein, UniProt Q6DD88 1-541, looked up)
Atlastin-3: MLSPQRVAAAASRGADDAMESSKPGPVQVVLVQKDQHSFELDEKALASILLQDHIRDLDVVVVSVAGAFRKGKSFILDFMLRYLYSQKESGHSNWLGDPEEPLTGFSWRGGSDPETTGIQIWSEVFTVEKPGGKKVAVVLMDTQGAFDSQSTVKDCATIFALSTMTSSVQIYNLSQNIQEDDLQQLQLFTEYGRLAMDEIFQKPFQTLMFLVRDWSFPYEYSYGLQGGMAFLDKRLQVKEHQHEEIQNVRNHIHSCFSDVTCFLLPHPGLQVATSPDFDGKLKDIAGEFKEQLQALIPYVLNPSKLMEKEINGSKVTCRGLLEYFKAYIKIYQGEDLPHPKSMLQATAEANNLAAAASAKDIYYNNMEEVCGGEKPYLSPDILEEKHCEFKQLALDHFKKTKKMGGKDFSFRYQQELEEEIKELYENFCKHNGSKNVFSTFRTPAVLFTGIVALYIASGLTGFIGLEVVAQLFNCMVGLLLIALLTWGYIRYSGQYRELGGAIDFGAAYVLEQASSHIGNSTQATVRDAVVGRPSMDKKAQ
B9: under setting [1], the “Total (peptides)” value stood at 2 and the “Unique (peptides)” value was 2. Under setting [3], the “Total (peptides)” value is 2 and the “Unique (peptides)” value came to 2.

B10: PYCR2 (protein, UniProt Q96C36 2-320, looked up)
Pyrroline-5-carboxylate …: SVGFIGAGQLAYALARGFTAAGILSAHKIIASSPEMNLPTVSALRKMGVNLTRSNKETVKHSDVLFLAVKPHIIPFILDEIGADVQARHIVVSCAAGVTISSVEKKLMAFQPAPKVIRCMTNTPVVVQEGATVYATGTHALVEDGQLLEQLMSSVGFCTEVEEDLIDAVTGLSGSGPAYAFMALDALADGGVKMGLPRRLAIQLGAQALLGAAKMLLDSEQHPCQLKDNVCSPGGATIHALHFLESGGFRSLLINAVEASCIRTRELQSMADQEKISPAALKKTLLDRVKLESPTVSTLTPSSPGKLLTRSLALGGKKD
As to B10, under setting [1], the “Total (peptides)” value came out at 2 and the “Unique (peptides)” value stood at 2. Under setting [3], the “Total (peptides)” value was determined as 2 and the “Unique (peptides)” value is 2.

B11: GLT8D1 (protein, UniProt Q68CQ7 1-371, looked up)
Glycosyltransferase 8 …: MSFRKVNIIILVLAVALFLLVLHHNFLSLSSLLRNEVTDSGIVGPQPIDFVPNALRHAVDGRQEEIPVVIAASEDRLGGAIAAINSIQHNTRSNVIFYIVTLNNTADHLRSWLNSDSLKSIRYKIVNFDPKLLEGKVKEDPDQGESMKPLTFARFYLPILVPSAKKAIYMDDDVIVQGDILALYNTALKPGHAAAFSEDCDSASTKVVIRGAGNQYNYIGYLDYKKERIRKLSMKASTCSFNPGVFVANLTEWKRQNITNQLEKWMKLNVEEGLYSRTLAGSITTPPLLIVFYQQHSTIDPMWNVRHLGSSAGKRYSPQFVKAAKLLHWNGHLKPWGRTASYTDVWEKWYIPDPTGKFNLIRRYTEISNIK
Consider B11, for which, under setting [1], the “Total (peptides)” value was found to be 2 and the “Unique (peptides)” value stood at 2. For the same molecule, under setting [3], the “Total (peptides)” value is on record as 3 and the “Unique (peptides)” value amounted to 3.
